# Assay results taken from the supplement of paper PMC10032668.
# The chains behind the UniProt entries cited, without tags or fusion partners.
# CAMP, P49913, UniProt P49913, whole entry: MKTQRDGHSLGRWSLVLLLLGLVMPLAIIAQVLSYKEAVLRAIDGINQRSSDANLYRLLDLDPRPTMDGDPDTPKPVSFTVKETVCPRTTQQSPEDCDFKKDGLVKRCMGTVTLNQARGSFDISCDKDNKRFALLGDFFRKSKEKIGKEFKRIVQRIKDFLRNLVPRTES
# CHTF18, Q8WVB6, UniProt Q8WVB6, whole entry: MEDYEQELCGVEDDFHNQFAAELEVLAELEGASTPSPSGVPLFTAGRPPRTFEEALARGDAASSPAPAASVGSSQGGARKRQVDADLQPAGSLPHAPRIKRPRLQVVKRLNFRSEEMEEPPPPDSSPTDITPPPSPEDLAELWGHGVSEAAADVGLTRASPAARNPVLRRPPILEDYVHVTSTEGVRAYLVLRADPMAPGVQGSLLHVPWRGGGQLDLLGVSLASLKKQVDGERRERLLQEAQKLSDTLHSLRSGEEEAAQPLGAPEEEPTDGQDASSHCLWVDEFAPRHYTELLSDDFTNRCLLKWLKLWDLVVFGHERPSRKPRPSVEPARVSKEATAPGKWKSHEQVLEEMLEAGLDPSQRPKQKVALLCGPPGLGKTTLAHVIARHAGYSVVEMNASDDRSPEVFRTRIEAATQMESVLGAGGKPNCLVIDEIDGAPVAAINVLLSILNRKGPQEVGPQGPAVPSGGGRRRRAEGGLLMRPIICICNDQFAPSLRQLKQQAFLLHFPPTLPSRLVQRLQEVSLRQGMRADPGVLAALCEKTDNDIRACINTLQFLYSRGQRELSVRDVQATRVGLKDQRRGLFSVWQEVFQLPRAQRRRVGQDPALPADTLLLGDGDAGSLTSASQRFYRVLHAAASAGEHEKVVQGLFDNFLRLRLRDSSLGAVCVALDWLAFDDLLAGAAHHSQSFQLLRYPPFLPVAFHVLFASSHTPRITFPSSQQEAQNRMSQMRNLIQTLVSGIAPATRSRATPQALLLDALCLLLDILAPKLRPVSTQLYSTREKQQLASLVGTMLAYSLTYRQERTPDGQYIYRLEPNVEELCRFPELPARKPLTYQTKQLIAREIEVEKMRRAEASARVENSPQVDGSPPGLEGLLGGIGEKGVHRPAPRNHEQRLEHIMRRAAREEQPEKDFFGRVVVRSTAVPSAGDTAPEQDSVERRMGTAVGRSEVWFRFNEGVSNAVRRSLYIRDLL
# CASC3, O15234, UniProt O15234, whole entry: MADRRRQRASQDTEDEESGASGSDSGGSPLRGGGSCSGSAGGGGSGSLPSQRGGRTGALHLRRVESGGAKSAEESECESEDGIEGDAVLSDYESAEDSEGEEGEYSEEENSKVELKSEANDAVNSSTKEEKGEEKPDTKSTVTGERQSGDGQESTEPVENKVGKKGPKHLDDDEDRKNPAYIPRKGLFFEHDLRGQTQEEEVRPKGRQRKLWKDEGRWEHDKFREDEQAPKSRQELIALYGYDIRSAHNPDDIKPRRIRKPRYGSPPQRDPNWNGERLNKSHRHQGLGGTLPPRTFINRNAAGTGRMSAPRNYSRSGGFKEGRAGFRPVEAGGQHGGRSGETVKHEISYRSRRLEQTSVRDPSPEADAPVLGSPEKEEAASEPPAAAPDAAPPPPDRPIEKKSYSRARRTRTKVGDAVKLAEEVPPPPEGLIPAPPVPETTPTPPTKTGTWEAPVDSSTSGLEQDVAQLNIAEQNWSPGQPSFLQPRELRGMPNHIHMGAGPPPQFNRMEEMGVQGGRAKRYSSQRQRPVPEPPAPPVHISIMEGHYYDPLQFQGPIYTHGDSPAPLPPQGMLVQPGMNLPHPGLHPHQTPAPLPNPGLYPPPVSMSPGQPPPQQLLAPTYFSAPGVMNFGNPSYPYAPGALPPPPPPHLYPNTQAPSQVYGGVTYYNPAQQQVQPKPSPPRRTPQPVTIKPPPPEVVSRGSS
# FXR1, P51114, UniProt P51114, whole entry: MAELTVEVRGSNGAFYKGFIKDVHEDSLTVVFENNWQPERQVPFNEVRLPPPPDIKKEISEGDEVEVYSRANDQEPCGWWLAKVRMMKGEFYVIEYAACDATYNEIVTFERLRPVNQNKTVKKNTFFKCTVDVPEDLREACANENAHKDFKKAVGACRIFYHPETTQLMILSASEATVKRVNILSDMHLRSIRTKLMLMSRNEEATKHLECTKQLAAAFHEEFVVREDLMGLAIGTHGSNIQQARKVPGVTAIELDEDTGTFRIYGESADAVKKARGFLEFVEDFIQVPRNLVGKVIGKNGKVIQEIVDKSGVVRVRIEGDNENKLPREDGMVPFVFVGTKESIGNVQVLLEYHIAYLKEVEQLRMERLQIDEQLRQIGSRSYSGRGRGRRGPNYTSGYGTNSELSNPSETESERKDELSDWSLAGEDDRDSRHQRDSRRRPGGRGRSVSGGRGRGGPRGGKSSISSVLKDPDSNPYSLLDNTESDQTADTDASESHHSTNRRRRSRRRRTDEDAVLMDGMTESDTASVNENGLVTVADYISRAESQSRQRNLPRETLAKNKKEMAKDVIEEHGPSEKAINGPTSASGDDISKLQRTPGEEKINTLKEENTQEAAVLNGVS
# LARP4B, Q92615, UniProt Q92615, whole entry: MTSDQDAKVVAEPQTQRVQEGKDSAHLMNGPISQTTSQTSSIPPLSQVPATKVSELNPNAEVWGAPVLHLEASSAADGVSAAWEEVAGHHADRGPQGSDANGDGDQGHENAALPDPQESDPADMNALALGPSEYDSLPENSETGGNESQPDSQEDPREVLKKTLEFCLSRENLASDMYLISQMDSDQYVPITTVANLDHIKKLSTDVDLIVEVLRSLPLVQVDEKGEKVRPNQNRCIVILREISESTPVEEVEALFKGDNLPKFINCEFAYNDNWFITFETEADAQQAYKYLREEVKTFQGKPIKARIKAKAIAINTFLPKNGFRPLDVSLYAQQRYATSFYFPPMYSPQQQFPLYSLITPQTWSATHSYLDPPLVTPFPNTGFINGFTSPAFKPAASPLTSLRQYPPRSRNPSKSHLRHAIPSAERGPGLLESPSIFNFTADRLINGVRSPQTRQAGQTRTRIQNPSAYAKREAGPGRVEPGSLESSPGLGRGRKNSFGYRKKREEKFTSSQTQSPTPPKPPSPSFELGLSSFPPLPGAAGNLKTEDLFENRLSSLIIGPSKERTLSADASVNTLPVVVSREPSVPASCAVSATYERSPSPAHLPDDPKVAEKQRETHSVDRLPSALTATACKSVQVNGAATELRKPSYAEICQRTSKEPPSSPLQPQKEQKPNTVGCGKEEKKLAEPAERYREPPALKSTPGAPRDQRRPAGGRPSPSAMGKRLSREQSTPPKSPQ
# TPM4, P67936, UniProt P67936, whole entry: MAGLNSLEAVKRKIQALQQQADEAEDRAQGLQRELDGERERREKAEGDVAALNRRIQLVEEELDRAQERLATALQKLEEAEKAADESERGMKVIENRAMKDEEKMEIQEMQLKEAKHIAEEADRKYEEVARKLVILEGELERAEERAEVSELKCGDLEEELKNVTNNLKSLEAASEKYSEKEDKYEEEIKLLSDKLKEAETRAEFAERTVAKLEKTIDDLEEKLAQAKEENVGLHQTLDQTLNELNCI
# HIST1H1E, P10412, UniProt P10412, whole entry: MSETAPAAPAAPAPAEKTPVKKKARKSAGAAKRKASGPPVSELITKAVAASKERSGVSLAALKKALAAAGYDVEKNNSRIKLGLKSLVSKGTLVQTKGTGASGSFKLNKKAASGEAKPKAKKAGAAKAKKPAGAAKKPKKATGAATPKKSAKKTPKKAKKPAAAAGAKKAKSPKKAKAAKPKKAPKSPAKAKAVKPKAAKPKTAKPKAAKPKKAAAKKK
# STAT3, P40763, UniProt P40763, whole entry: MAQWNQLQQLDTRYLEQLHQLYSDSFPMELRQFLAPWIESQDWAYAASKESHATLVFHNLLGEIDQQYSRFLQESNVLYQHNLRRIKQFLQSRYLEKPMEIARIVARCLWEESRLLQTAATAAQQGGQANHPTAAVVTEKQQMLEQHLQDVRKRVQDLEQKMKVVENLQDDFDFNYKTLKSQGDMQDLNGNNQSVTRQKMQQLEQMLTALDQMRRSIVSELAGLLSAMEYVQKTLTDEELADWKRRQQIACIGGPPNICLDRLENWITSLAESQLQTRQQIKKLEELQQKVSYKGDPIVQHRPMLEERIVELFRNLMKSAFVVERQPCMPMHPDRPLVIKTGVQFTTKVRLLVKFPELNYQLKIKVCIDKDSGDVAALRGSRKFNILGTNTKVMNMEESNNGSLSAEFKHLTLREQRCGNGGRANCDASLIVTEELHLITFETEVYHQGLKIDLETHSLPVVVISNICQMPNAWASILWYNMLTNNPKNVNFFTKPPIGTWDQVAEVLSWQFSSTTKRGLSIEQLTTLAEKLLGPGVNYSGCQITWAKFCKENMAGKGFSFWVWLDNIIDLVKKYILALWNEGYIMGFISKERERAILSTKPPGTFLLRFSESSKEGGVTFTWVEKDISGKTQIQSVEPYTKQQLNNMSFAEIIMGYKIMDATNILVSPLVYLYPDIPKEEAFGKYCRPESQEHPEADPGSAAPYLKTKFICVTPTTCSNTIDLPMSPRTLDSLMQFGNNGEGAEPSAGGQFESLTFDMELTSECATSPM
# PPP1CB, P62140, UniProt P62140, whole entry: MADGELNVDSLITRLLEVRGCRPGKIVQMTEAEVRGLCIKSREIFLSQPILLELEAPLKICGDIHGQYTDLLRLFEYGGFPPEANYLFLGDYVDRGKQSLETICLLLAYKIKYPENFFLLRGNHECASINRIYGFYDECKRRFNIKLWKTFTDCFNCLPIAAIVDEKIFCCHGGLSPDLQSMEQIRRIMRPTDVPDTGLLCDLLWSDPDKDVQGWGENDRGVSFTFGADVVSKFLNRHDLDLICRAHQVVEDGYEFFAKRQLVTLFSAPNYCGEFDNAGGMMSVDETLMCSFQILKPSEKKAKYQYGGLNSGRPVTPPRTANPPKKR
# PRMT5, O14744, UniProt O14744, whole entry: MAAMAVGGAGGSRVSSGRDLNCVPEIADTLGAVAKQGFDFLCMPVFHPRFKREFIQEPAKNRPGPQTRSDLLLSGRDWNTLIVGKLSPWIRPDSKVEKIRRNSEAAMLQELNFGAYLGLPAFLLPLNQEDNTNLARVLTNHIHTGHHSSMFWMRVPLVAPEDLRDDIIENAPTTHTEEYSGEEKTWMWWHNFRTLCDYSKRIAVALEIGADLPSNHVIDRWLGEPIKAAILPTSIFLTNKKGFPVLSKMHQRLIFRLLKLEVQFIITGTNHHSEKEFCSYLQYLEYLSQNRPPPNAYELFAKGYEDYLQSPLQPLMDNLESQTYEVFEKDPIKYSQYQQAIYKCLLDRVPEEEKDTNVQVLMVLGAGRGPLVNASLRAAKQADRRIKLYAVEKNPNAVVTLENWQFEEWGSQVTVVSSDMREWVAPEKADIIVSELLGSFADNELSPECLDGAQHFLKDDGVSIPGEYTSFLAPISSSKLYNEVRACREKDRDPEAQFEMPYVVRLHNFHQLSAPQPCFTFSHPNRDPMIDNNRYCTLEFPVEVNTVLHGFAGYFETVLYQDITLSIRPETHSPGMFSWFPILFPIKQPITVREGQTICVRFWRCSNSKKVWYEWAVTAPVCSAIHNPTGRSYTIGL
# CCT5, P48643, UniProt P48643, whole entry: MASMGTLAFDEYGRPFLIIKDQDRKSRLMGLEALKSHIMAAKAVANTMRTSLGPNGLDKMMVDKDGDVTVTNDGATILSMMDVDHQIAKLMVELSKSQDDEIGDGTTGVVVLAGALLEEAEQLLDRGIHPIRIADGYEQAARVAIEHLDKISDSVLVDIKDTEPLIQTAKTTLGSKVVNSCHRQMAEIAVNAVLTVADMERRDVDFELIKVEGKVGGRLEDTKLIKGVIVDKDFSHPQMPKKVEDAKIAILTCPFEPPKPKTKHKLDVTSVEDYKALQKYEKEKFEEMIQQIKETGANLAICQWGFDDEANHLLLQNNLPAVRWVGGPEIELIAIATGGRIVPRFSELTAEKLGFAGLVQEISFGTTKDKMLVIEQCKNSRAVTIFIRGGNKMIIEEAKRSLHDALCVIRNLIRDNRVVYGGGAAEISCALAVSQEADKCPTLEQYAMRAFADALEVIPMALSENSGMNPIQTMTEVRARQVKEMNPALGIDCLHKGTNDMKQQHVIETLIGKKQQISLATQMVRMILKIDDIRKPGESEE
# NDUFS5, O43920, UniProt O43920, whole entry: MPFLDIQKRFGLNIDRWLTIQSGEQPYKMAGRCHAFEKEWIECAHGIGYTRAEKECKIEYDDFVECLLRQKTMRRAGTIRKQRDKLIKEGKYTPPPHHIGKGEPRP
# RFC2, P35250, UniProt P35250, whole entry: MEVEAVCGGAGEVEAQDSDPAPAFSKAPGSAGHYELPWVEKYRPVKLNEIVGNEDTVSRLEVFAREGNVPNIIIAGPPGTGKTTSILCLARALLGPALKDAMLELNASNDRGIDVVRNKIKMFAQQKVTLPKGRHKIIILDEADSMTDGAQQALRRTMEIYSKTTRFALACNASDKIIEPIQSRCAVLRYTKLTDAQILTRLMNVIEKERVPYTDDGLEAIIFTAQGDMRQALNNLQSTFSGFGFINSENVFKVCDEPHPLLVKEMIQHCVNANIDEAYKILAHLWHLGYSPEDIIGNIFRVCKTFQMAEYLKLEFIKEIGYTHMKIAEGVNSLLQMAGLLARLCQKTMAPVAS
# Some of the results follow. Only hits are listed; about a third recur on repeated control peptides.
# How the values were obtained:
# Test in all cases: PRISMA enrichment of interactor (LFQ) in peptide spot vs all other peptide spots (log2 fold change); higher = stronger / more specific binding of the interactor to the peptide
# [1] = target: CAMP, P49913
# Method: (§1)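 PRISMA: 15-aa overlapping tiles (offset 8 aa) of 60 microproteins, plus SOS1/GLUT1 control peptides, were spot-synthesized on cellulose membranes in triplicate. Membranes were incubated with benzonase-treated HEK293T lysate, and bound proteins were identified by LC-MS/MS with LFQ. Enrichment is the log2 fold change of each protein in one spot versus all other spots. Only interactors passing the significance cutoff are listed.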
# [2] = target: CDC73, Q6P1J9
# Method: as §1
# [3] = target: CHTF18, Q8WVB6
# Method: as §1
# [4] = target: CPS1, P31327
# Method: as §1
# [5] = target: DHX15, O43143
# Method: as §1
# [6] = target: FANCD2, Q9BXW9
# Method: as §1
# [7] = substrate: PNN, Q9H307
# Method: as §1
# [8] = target: RBM7, Q9Y580
# Method: as §1
# [9] = target: TRMT5, Q32P41
# Method: as §1
# [10] = target: CASC3, O15234
# Method: as §1
# [11] = target: MACF1
# Method: as §1
# [12] = target: NEFM, P07197
# Method: as §1
# [13] = target: PWP1, Q13610
# Method: as §1
# [14] = target: TOMM70, O94826
# Method: as §1
# [15] = target: VTA1, Q9NP79
# Method: as §1
# [16] = target: CCT3, P49368
# Method: as §1
# [17] = target: CEBPZ, Q03701
# Method: as §1
# [18] = target: CHCHD3, Q9NX63
# Method: as §1
# [19] = target: CHCHD6, Q9BRQ6
# Method: as §1
# [20] = target: EARS2, Q5JPH6
# Method: as §1
# [21] = target: EIF3A, Q14152
# Method: as §1
# [22] = target: EXOSC10, Q01780
# Method: as §1
# [23] = target: FXR1, P51114
# Method: as §1
# [24] = target: GPD1L, Q8N335
# Method: as §1
# [25] = target: LARP4B, Q92615
# Method: as §1
# [26] = target: LMNA, P02545
# Method: as §1
# [27] = target: LYPLAL1, Q5VWZ2
# Method: as §1
# [28] = target: MPST, P25325
# Method: as §1
# [29] = target: MRPS6, P82932
# Method: as §1
# [30] = target: ORC4, O43929
# Method: as §1
# [31] = target: PAF1, Q8N7H5
# Method: as §1
# [32] = target: PAICS, P22234
# Method: as §1
# [33] = target: RAB11A, P62491
# Method: as §1
# [34] = target: SLC37A4, O43826
# Method: as §1
# [35] = target: STAT1, P42224
# Method: as §1
# [36] = target: TAGLN2, P37802
# Method: as §1
# [37] = target: TKT, P29401
# Method: as §1
# [38] = target: TMED1, Q13445
# Method: as §1
# [39] = target: TPM4, P67936
# Method: as §1
# [40] = target: UMPS, P11172
# Method: as §1
# [41] = target: UTP20, O75691
# Method: as §1
# [42] = target: CALU, O43852
# Method: as §1
# [43] = target: ODF2, Q5BJF6
# Method: as §1
# [44] = target: PTDSS1, P48651
# Method: as §1
# [45] = target: ZC3H15, Q8WU90
# Method: as §1
# [46] = target: CBX4, O00257
# Method: as §1
# [47] = target: COPG2, Q9UBF2
# Method: as §1
# [48] = target: DDX19A, Q9NUU7
# Method: as §1
# [49] = target: GYG1, P46976
# Method: as §1
# [50] = target: HIST1H1E, P10412
# Method: as §1
# [51] = target: MKKS, Q9NPJ1
# Method: as §1
# [52] = target: STAT3, P40763
# Method: as §1
# [53] = target: HSPBP1, Q9NZL4
# Method: as §1
# [54] = target: MRPL27, Q9P0M9
# Method: as §1
# [55] = target: ORC2, Q13416
# Method: as §1
# [56] = target: SFSWAP, Q12872
# Method: as §1
# [57] = target: SLC25A4, P12235
# Method: as §1
# [58] = target: TRA2A, Q13595
# Method: as §1
# [59] = target: ZNF622, Q969S3
# Method: as §1
# [60] = target: CD2AP, Q9Y5K6
# Method: as §1
# [61] = target: DBNL, Q9UJU6
# Method: as §1
# [62] = target: HTATSF1, O43719
# Method: as §1
# [63] = target: MDK, P21741
# Method: as §1
# [64] = target: NLE1, Q9NVX2
# Method: as §1
# [65] = target: PPP1CB, P62140
# Method: as §1
# [66] = target: PRMT5, O14744
# Method: as §1
# [67] = target: PSRC1, Q6PGN9
# Method: as §1
# [68] = target: TMEM120A, Q9BXJ8
# Method: as §1
# [69] = target: TUBB4A, P04350
# Method: as §1
# [70] = target: CCT5, P48643
# Method: as §1
# [71] = target: GALK1, P51570
# Method: as §1
# [72] = target: NDUFS5, O43920
# Method: as §1
# [73] = target: RFC2, P35250
# Method: as §1
# [74] = target: RUSC1, Q9BVN2
# Method: as §1
# [75] = target: S100A9, P06702
# Method: as §1
# [76] = target: SCML2, Q9UQR0
# Method: as §1
# [77] = target: TDRKH, Q9Y2W6
# Method: as §1
# [78] = target: RCN2, Q14257
# Method: as §1
# [79] = target: TUBB8, Q3ZCM7
# Method: as §1
binder,measurement,setting,value
STDFPRRTTRGEACG [THAP7],PRISMA enrichment of interactor (log2),[1],4.64
same,PRISMA enrichment of interactor (log2),[2],5.55
same,PRISMA enrichment of interactor (log2),[3],4.61
same,PRISMA enrichment of interactor (log2),[4],4.98
same,PRISMA enrichment of interactor (log2),[5],7.8
same,PRISMA enrichment of interactor (log2),[6],4.29
same,PRISMA enrichment of interactor (log2),[7],5.83
same,PRISMA enrichment of interactor (log2),[8],7.31
same,PRISMA enrichment of interactor (log2),[9],4.91
SEAGTGFCFNTKRNR [MRPL33],PRISMA enrichment of interactor (log2),[10],6.64
same,PRISMA enrichment of interactor (log2),[11],6
same,PRISMA enrichment of interactor (log2),[12],5.06
same,PRISMA enrichment of interactor (log2),[13],5.38
same,PRISMA enrichment of interactor (log2),[14],7.52
same,PRISMA enrichment of interactor (log2),[15],6.89
LLRDLVTEARQRFHL [RP1-206D15.6],PRISMA enrichment of interactor (log2),[1],6.6
same,PRISMA enrichment of interactor (log2),[16],7.12
same,PRISMA enrichment of interactor (log2),[17],6.57
same,PRISMA enrichment of interactor (log2),[18],4.5
same,PRISMA enrichment of interactor (log2),[19],5.76
same,PRISMA enrichment of interactor (log2),[20],7.27
same,PRISMA enrichment of interactor (log2),[21],7.21
same,PRISMA enrichment of interactor (log2),[22],4.47
same,PRISMA enrichment of interactor (log2),[23],6.72
same,PRISMA enrichment of interactor (log2),[24],4.57
same,PRISMA enrichment of interactor (log2),[25],5.43
same,PRISMA enrichment of interactor (log2),[26],4.14
same,PRISMA enrichment of interactor (log2),[27],5
same,PRISMA enrichment of interactor (log2),[28],4.27
same,PRISMA enrichment of interactor (log2),[29],6.13
same,PRISMA enrichment of interactor (log2),[30],5.74
same,PRISMA enrichment of interactor (log2),[31],6.07
same,PRISMA enrichment of interactor (log2),[32],8.22
same,PRISMA enrichment of interactor (log2),[33],4.84
same,PRISMA enrichment of interactor (log2),[34],4.27
same,PRISMA enrichment of interactor (log2),[35],4.75
same,PRISMA enrichment of interactor (log2),[36],6.91
same,PRISMA enrichment of interactor (log2),[37],6.66
same,PRISMA enrichment of interactor (log2),[38],4.46
same,PRISMA enrichment of interactor (log2),[39],7.72
same,PRISMA enrichment of interactor (log2),[40],6.94
same,PRISMA enrichment of interactor (log2),[41],4.18
QRRHGFQKRECEECK,PRISMA enrichment of interactor (log2),[42],5.18
same,PRISMA enrichment of interactor (log2),[43],10.3
same,PRISMA enrichment of interactor (log2),[44],4.75
same,PRISMA enrichment of interactor (log2),[45],6.16
FQIPKNDDIPEQDSL [MKKS],PRISMA enrichment of interactor (log2),[46],5.02
same,PRISMA enrichment of interactor (log2),[47],8.55
same,PRISMA enrichment of interactor (log2),[48],6.16
same,PRISMA enrichment of interactor (log2),[49],7.21
same,PRISMA enrichment of interactor (log2),[50],6.86
same,PRISMA enrichment of interactor (log2),[51],4.44
same,PRISMA enrichment of interactor (log2),[52],4.75
DFYFASIRREFRKNQ [MIEF-MP],PRISMA enrichment of interactor (log2),[42],4.84
same,PRISMA enrichment of interactor (log2),[53],3.85
same,PRISMA enrichment of interactor (log2),[54],7.02
same,PRISMA enrichment of interactor (log2),[55],5.46
same,PRISMA enrichment of interactor (log2),[56],5.67
same,PRISMA enrichment of interactor (log2),[57],6.28
same,PRISMA enrichment of interactor (log2),[58],8.05
same,PRISMA enrichment of interactor (log2),[59],5.1
DWKGASQPQGNHKVL [TRDN-AS1_2],PRISMA enrichment of interactor (log2),[60],5.3
same,PRISMA enrichment of interactor (log2),[61],3.83
same,PRISMA enrichment of interactor (log2),[62],4.67
same,PRISMA enrichment of interactor (log2),[63],3.87
same,PRISMA enrichment of interactor (log2),[64],4.59
same,PRISMA enrichment of interactor (log2),[65],4.83
same,PRISMA enrichment of interactor (log2),[66],4.99
same,PRISMA enrichment of interactor (log2),[67],5.34
same,PRISMA enrichment of interactor (log2),[68],4.49
same,PRISMA enrichment of interactor (log2),[69],3.72
IQKVPRRNFLLEKMK [SOCS4],PRISMA enrichment of interactor (log2),[70],6.75
same,PRISMA enrichment of interactor (log2),[71],4.72
same,PRISMA enrichment of interactor (log2),[72],8.95
same,PRISMA enrichment of interactor (log2),[73],4.73
same,PRISMA enrichment of interactor (log2),[74],7.16
same,PRISMA enrichment of interactor (log2),[75],6.74
same,PRISMA enrichment of interactor (log2),[76],4.11
same,PRISMA enrichment of interactor (log2),[77],4.76
RTWSKNSHCHSYRLS,PRISMA enrichment of interactor (log2),[10],5.35
same,PRISMA enrichment of interactor (log2),[43],10.4
same,PRISMA enrichment of interactor (log2),[78],5.29
same,PRISMA enrichment of interactor (log2),[79],4.68

# Rewritten bar-delimited: part of the list above.
binder | measurement | setting | value
SEAGTGFCFNTKRNR [MRPL33] | PRISMA enrichment of interactor (log2) | [14] | 7.52
same | PRISMA enrichment of interactor (log2) | [15] | 6.89
LLRDLVTEARQRFHL [RP1-206D15.6] | PRISMA enrichment of interactor (log2) | [1] | 6.6
